Results are given in words; binding and its absence hold for the method and conditions named. In cells and extracts the contact can be indirect. Some entries that bind do so weakly or less than the wild type. Where a sequence is shown, tags or fusion partners need not be part of it.
Target: Chromosome Region Maintenance 1 (CRM1) (human (endogenous in HeLa)) (UniProt O14980)
Assay: co-IP; lysates of HeLa cells transfected with GNL3L-GFP variants; equal amounts of lysate precipitated with anti-CRM1 antibody (endogenous CRM1), western blot with anti-GFP antibody

The chains behind the UniProt entries cited, without tags or fusion partners.
UniProt O14980: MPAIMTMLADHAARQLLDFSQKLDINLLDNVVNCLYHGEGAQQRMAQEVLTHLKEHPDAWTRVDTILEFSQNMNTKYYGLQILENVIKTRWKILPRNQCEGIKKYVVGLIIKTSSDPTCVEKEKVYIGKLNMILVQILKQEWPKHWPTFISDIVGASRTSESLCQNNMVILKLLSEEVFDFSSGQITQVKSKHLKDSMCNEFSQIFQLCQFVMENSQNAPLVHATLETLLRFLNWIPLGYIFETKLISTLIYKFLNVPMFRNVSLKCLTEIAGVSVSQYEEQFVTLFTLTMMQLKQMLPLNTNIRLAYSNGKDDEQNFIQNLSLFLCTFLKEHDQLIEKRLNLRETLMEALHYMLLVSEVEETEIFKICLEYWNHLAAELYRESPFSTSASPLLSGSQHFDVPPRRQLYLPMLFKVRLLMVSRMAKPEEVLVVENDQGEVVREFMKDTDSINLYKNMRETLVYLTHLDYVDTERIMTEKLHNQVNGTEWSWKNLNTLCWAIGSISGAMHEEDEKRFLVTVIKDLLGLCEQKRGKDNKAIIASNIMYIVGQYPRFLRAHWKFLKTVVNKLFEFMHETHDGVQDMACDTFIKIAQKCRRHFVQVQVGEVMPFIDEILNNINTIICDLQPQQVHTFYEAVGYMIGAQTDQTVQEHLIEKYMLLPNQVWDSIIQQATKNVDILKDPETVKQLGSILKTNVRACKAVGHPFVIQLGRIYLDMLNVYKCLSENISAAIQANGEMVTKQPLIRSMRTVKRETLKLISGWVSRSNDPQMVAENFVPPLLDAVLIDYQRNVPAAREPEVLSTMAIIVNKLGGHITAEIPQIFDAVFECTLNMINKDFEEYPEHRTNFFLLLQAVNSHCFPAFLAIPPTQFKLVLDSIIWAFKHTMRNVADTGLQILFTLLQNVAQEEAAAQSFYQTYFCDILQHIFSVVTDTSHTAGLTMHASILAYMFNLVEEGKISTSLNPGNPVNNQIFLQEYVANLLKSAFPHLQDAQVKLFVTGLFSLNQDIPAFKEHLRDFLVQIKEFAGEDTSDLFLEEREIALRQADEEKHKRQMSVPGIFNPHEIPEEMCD

B1: GNL3L^1–582-GFP (wild type GNL3L, C-terminal eGFP fusion) (protein, UniProt Q9NVN8 1-582)
chain: MMKLRHKNKKPGEGSKGHKKISWPYPQPAKQNGKKATSKVPSAPHFVHPNDHANREAELKKKWVEEMREKQQAAREQERQKRRTIESYCQDVLRRQEEFEHKEEVLQELNMFPQLDDEATRKAYYKEFRKVVEYSDVILEVLDARDPLGCRCFQMEEAVLRAQGNKKLVLVLNKIDLVPKEVVEKWLDYLRNELPTVAFKASTQHQVKNLNRCSVPVDQASESLLKSKACFGAENLMRVLGNYCRLGEVRTHIRVGVVGLPNVGKSSLINSLKRSRACSVGAVPGITKFMQEVYLDKFIRLLDAPGIVPGPNSEVGTILRNCVHVQKLADPVTPVETILQRCNLEEISNYYGVSGFQTTEHFLTAVAHRLGKKKKGGLYSQEQAAKAVLADWVSGKISFYIPPPATHTLPTHLSAEIVKEMTEVFDIEDTEQANEDTMECLATGESDELLGDTDPLEMEIKLLHSPMTKIADAIENKTTVYKIGDLTGYCTNPNRHQMGWAKRNVDHRPKSNSMVDVCSVDRRSVLQRIMETDPLQQGQALASALKNKKKMQKRADKIASKLSDSMMSALDLSGNADDGVGD
For B1, the binding was “binds”.

B2: GNL3L^501–582-GFP (domain or fragment, UniProt Q9NVN8 501-582)
chain: AKRNVDHRPKSNSMVDVCSVDRRSVLQRIMETDPLQQGQALASALKNKKKMQKRADKIASKLSDSMMSALDLSGNADDGVGD
B2 was tested, and the binding was “binds”.

B3: GNL3L^51–500-GFP (domain or fragment, UniProt Q9NVN8 51-500)
chain: DHANREAELKKKWVEEMREKQQAAREQERQKRRTIESYCQDVLRRQEEFEHKEEVLQELNMFPQLDDEATRKAYYKEFRKVVEYSDVILEVLDARDPLGCRCFQMEEAVLRAQGNKKLVLVLNKIDLVPKEVVEKWLDYLRNELPTVAFKASTQHQVKNLNRCSVPVDQASESLLKSKACFGAENLMRVLGNYCRLGEVRTHIRVGVVGLPNVGKSSLINSLKRSRACSVGAVPGITKFMQEVYLDKFIRLLDAPGIVPGPNSEVGTILRNCVHVQKLADPVTPVETILQRCNLEEISNYYGVSGFQTTEHFLTAVAHRLGKKKKGGLYSQEQAAKAVLADWVSGKISFYIPPPATHTLPTHLSAEIVKEMTEVFDIEDTEQANEDTMECLATGESDELLGDTDPLEMEIKLLHSPMTKIADAIENKTTVYKIGDLTGYCTNPNRHQMGW
B3 was tested, and the binding was “no binding”.

B4: GNL3L^51–547-GFP (domain or fragment, UniProt Q9NVN8 51-547)
chain: DHANREAELKKKWVEEMREKQQAAREQERQKRRTIESYCQDVLRRQEEFEHKEEVLQELNMFPQLDDEATRKAYYKEFRKVVEYSDVILEVLDARDPLGCRCFQMEEAVLRAQGNKKLVLVLNKIDLVPKEVVEKWLDYLRNELPTVAFKASTQHQVKNLNRCSVPVDQASESLLKSKACFGAENLMRVLGNYCRLGEVRTHIRVGVVGLPNVGKSSLINSLKRSRACSVGAVPGITKFMQEVYLDKFIRLLDAPGIVPGPNSEVGTILRNCVHVQKLADPVTPVETILQRCNLEEISNYYGVSGFQTTEHFLTAVAHRLGKKKKGGLYSQEQAAKAVLADWVSGKISFYIPPPATHTLPTHLSAEIVKEMTEVFDIEDTEQANEDTMECLATGESDELLGDTDPLEMEIKLLHSPMTKIADAIENKTTVYKIGDLTGYCTNPNRHQMGWAKRNVDHRPKSNSMVDVCSVDRRSVLQRIMETDPLQQGQALASALKN
In the case of B4, the binding is reported as “no binding”.

From PMC4537249
